Measurements from PubChem BioAssay AID504467 (National Center for Advancing Translational Sciences (NCATS), 2011).
In all, about 330,000 compounds went through this assay and about 7,700 (2.3%) were called active. The inconclusive results got no clear call from the source; some entries with a clear call stand among them for comparison. Calls come from the whole dose curve; as a rule, active = well fitted inhibition curve with a large enough effect; inconclusive = small, poorly fitted or top-dose-only effect, or effect the other way; inactive = flat fitted curve, though single readings scatter. Potencies beside an inconclusive call are fits to weak or partial responses and may not hold up.

Assay: qHTS screen for small molecules that inhibit ELG1-dependent DNA repair in human embryonic kidney (HEK293T) cells expressing luciferase-tagged ELG1; note: nearly all actives have a fitted effect of over 55% in size
Conditions: HEK293T ELG1-luciferase reporter, luminescence, 16 h, DNA damage induced by 5-fluorouridine; activity change, negative = inhibition: at 46.1 µM (top of the series)
How it was run: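 Step one: seed 2,000 cells per well. Step two: pin-transfer compound or DMSO alongside 5-fluorouridine. Step three: incubate 16 hr, 37 °C, 5% CO2. Step four: add ONE-Glo, wait 30 min, read luminescence.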
% is set by controls: 0 for no effect and ±100 for the full control effect; potency is the fitted concentration of half-maximal effect.

Which Potency does the source give for `CCc1ccc(N2CC(C(=O)N3CCCC3)CC2=O)cc1` (stereo unspecified) here?
Its Potency is inconclusive: 23.1 µM [activator, single point].

For `CCCCN(C(=O)c1ccc(C)c(S(=O)(=O)N2CCOCC2)c1)c1c(N)n(CCCC)c(=O)[nH]c1=O`, which “activity change, negative = inhibition” value is on record?
The value was inactive: 4.96%.

With `O=C(COC(=O)c1cccc([N+](=O)[O-])c1)c1ccc(OCc2ccccc2)cc1` as the compound, how does the Potency read?
Its Potency is inconclusive: 20.6 µM [activator, single point].

With `C=CCOC(=O)C1=C(C)NC(=S)NC1/C=C/c1ccccc1` (stereo unspecified) as the compound, how does the Potency read?
Its Potency is inconclusive: 14.6 µM [inhibitor, partial curve].

Which Potency does the source give for `Cc1oc2c(c1C(=O)NCc1cccnc1)C(=O)c1ccccc1C2=O` here?
Its Potency is active: 1.64 µM.

With `O=C(Nc1ccccc1)N(C1=NCCC1)c1ccc(OC(F)F)cc1` as the compound, how does the “activity change, negative = inhibition” value read?
Its value is inactive: 26.1%.

Which Potency does the source give for `CS(=O)(=O)Nc1ccc(C2=NN(C(=O)c3ccco3)C(c3cccc(F)c3)C2)cc1` (stereo unspecified) here?
Its Potency is inconclusive: 20.6 µM [inhibitor, single point].

Which Potency does the source give for `c1cn2cc(CSC3CCCCC3)nc2s1` here?
Its Potency is inconclusive: 5.17 µM [activator, full curve].

For `Cc1ccc(NN2C(=O)C=CC2=O)cc1`, which Potency is on record?
The Potency was inconclusive: 16.4 µM [activator, partial curve, poor fit].

For `Cc1cccc(C(C)n2nnc3ccccc32)c1O` (stereo unspecified), which “activity change, negative = inhibition” value is on record?
The value was inactive: -5.55%.

With `O=[N+]([O-])c1ccc(CN2CCCCCC2)s1` as the compound, how does the “activity change, negative = inhibition” value read?
Its value is inactive: 27.3%.

For `CC(C)CCCNc1nc(N2CCOCC2)nc(N2CCOCC2)n1`, which Potency is on record?
The Potency was active: 10.3 µM.

Which “activity change, negative = inhibition” value does the source give for `CC1=C(C(=O)O)N2C(=O)C(NC(=O)c3nn(C)cc3[N+](=O)[O-])C2SC1` (stereo unspecified) here?
Its value is inactive: -8.65%.

With `CCOC(=O)/C=C(\C)Nc1cc(C)nn1-c1ccccc1` as the compound, how does the Potency read?
The Potency was inconclusive: 20.6 µM [activator, single point].

Which Potency does the source give for `O=C1CS/C(=N\N=C\c2ccccc2Cl)N1CC1CC1` here?
The Potency was inconclusive: 2.31 µM [activator, partial curve].

With `COc1cccc(NC(=O)c2ccccc2N2C(=O)C3C4C=CC(C4)C3C2=O)c1` (stereo unspecified) as the compound, how does the Potency read?
The Potency was inconclusive: 25.9 µM [activator, partial curve, poor fit].

For `CCOC(=O)Cn1nnnc1CN(Cc1cccs1)Cc1cc2cc(C)cc(C)c2[nH]c1=O`, which Potency is on record?
Its Potency is inconclusive: 23.1 µM [inhibitor, single point].

With `COC(=O)c1sc2ccccc2c1NC(=O)c1coc2ccccc2c1=O` as the compound, how does the Potency read?
The Potency was inconclusive: 18.4 µM [activator, partial curve, poor fit].

With `CSc1ncc(C(=O)Nc2cccc(Cl)c2)c(C)n1` as the compound, how does the “activity change, negative = inhibition” value read?
Its value is inactive: 11.3%.

Which “activity change, negative = inhibition” value does the source give for `Cc1[nH]c2ccccc2c1/C=N/NC(=S)NC(C)C` here?
The value was inactive: -4.25%.

With `S=C(NCc1ccco1)Nc1ccc(N2CCOCC2)cc1` as the compound, how does the Potency read?
Its Potency is inconclusive: 18.4 µM [activator, single point].
